In patent publication US20260079169A1, “VOLATILE ORGANIC COMPOUNDS AS MARKERS FOR CELLULAR COMMUNICATION” (Technion Research and Development Foundation Limited, priority 2020, published 2026):

Tests used:
[1] = system: A549, H1299, H1975 human lung cancer lines and BEAS-2B normal cell line, each cultured alone; test: VOCs headspace analysis (ITEX GC-MS) of mono-culture groups (Format-1), bulk cell samples 1×10^4 cells; assay type: cell-based; conditions: bulk 1 × 10^4 cell
[2] = system: different-cell pairs of BEAS-2B, A549, H1299, H1975 without physical contact under a mutual headspace; test: VOCs headspace analysis (ITEX GC-MS) of different-cell pair co-culture headspace groups (Format-3), bulk cell samples; assay type: cell-based, human; conditions: bulk 1 × 10^4 cell

Row | SMILES | VOC level in headspace, area under curve (AUC) normalized by STD AUC ([1]; A (BEAS-2B) mono-culture) | VOC level in headspace, area under curve (AUC) normalized by STD AUC ([1]; B (A549) mono-culture) | VOC level in headspace, area under curve (AUC) normalized by STD AUC ([1]; C (H1299) mono-culture) | VOC level in headspace, area under curve (AUC) normalized by STD AUC ([1]; D (H1975) mono-culture) | VOC level in headspace, area under curve (AUC) normalized by STD AUC ([2]; A + B (BEAS-2B + A549)) | VOC level in headspace, area under curve (AUC) normalized by STD AUC ([2]; A + C (BEAS-2B + H1299)) | VOC level in headspace, area under curve (AUC) normalized by STD AUC ([2]; A + D (BEAS-2B + H1975)) | VOC level in headspace, area under curve (AUC) normalized by STD AUC ([2]; B + C (A549 + H1299)) | VOC level in headspace, area under curve (AUC) normalized by STD AUC ([2]; B + D (A549 + H1975)) | VOC level in headspace, area under curve (AUC) normalized by STD AUC ([2]; C + D (H1299 + H1975))
1 | CCCCCCCCCCCCCCC=O [VOC4] | 0 | 0 | 0 | 0 | 0 | 0 | 0 | 0 | 0 | 0
2 | CCCCCCCCC=O [VOC5] | 0 | 5.353 | 0.0524 | 5.827 | 9.91 | 3.842 | 0 | 0 | 7.88 | 0
3 | CCCCCCCCCCCC [VOC6] | 2.93 | – | 0 | 7.604 | 0 | 0 | 0 | 0 | 0 | 0
4 | CCCCCCCCCCCCCC [VOC7] | 0.977 | 1.466 | 0 | 7.874 | 8.418 | 9.815 | 0 | 6.131 | 0 | 7.454
5 | CCCCCCCCCCCCCCCC [VOC8] | 0 | 0 | 1.5507 | 9.863 | 1 | 0 | 0 | 0 | 0 | 0
6 | CCCCCCCCCCCCCCC [VOC9] | 3.863 | 0 | 0 | 0 | 9.676 | 7.602 | 6.928 | 0 | 0 | 0
7 | CCCC(C)CCCCC(C)CC (stereo not shown) [VOC10] | 0 | 0 | 2.6495 | 0 | 0 | 7.939 | 0 | 0 | 0 | 0
8 | CCCCCCC(C)CC(C)CCC (stereo not shown) [VOC11] | 9.142 | 0 | 0 | 8.847 | 2.169 | 3.956 | 0 | 0 | 5.827 | 0
